In PubChem BioAssay AID540303 (National Center for Advancing Translational Sciences (NCATS), 2011):
Out of some 330,000 compounds screened, about 1,000 (0.3%) were called active. The shares of active, inactive and inconclusive entries below differ from those in the screen. Calls follow the shape of the dose curve; as a rule, active = well fitted inhibition curve with a large enough effect; inconclusive = small, poorly fitted or top-dose-only effect; inactive = no such curve, though single readings can be large or run the other way; tested in mouse RAW 264.7 cells. A potency beside an inconclusive call is a rough fit, not a confirmed value.

Test: qHTS for Inhibitors of Cell Surface uPA Generation; also: nearly all actives have a fitted effect of over 55% in size
Conditions: cell surface uPA generation assay; series mostly up to 38.3 µM; activity change, negative = inhibition: at the top concentration
Method in brief: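 RAW 264.7, 4000 cells/well, o/n 37 C; cpd 1:5 dilution, up to 38.3 uM final; 24 h 37 C/5% CO2 with reagent; ATP-Lite lum. High ATP = LF entry blocked.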
% is scaled to controls: 0 for no effect and ±100 for the full control effect; potency is read from the fitted curve at half-maximal effect.

| SMILES | Potency | activity change, negative = inhibition |
| --- | --- | --- |
| O=C(Nc1nnc(-c2cccs2)o1)c1cccc(C(F)(F)F)c1 | inconclusive: 11.2 µM [inhibitor, partial curve, poor fit] | – |
| O=C(Nc1cccc(NC(=O)c2cc([N+](=O)[O-])ccc2Cl)n1)c1cc([N+](=O)[O-])ccc1Cl | active: 8.91 µM | – |
| COCCn1c(C)cc(C(=O)CSc2nc3ccccc3c(=O)n2Cc2ccco2)c1C | – | inactive: -4.09% |
| COc1cc([N+](=O)[O-])cc(/C=N/NC(=O)c2cc(-c3ccccc3)nc3ccccc23)c1O | inconclusive: 12.6 µM [inhibitor, single point] | – |
| COc1cccc(Cn2cc(C)cc(NC(=O)NCc3ccccc3)c2=O)c1 | inconclusive: 10 µM [inhibitor, partial curve, poor fit] | – |
| COc1ccc(Cl)cc1NC(=O)CN(C)CC(=O)Nc1cc(OC)c(OC)c(OC)c1 | active: 3.55 µM | – |
| COc1ccc(-c2ccc3c(c2)S(=O)(=O)c2cccc(C(=O)N4CCN(C5CCCCC5)CC4)c2C3=O)cc1OC | active: 3.16 µM | – |
| COc1ccc(/C=C/c2c([N+](=O)[O-])c(=O)n(C)c(=O)n2C)cc1O | – | inactive: -12.7% |
| O=C(O)c1ccc(/C=N/NC(=O)c2ccc3c(c2)OCCO3)cc1 | inconclusive: 11.2 µM [inhibitor, single point] | – |
| CCNC(=S)NNc1nc(N2CCCCC2)nc(N2CCOCC2)n1 | – | inactive: -4.22% |
| CC(=O)Nc1sc2c(c1-c1nc3ccccc3s1)CCN(C(C)C)C2 | inconclusive: 1 µM [inhibitor, full curve, poor fit] | – |
| Cc1[nH]nc(Nc2ccc(Br)cc2)c1[N+](=O)[O-] | inconclusive: 10 µM [inhibitor, partial curve] | – |
| CC[N+](CC)(CC)CCOc1ccc(/C=C/c2ccccc2)cc1 | inconclusive: 7.08 µM [inhibitor, single point] | – |
| COc1cc(NC(=O)CSC(=S)N2CCCC2)c(OC)cc1Cl | inconclusive: 0.251 µM [inhibitor, full curve, poor fit] | – |
| O=C(OCC(=O)N1CCCC1=O)c1nc(Cl)c(Cl)c(Cl)c1Cl | inconclusive: 22.4 µM [inhibitor, single point] | – |
| COc1ccc(/C=N/NC(=O)CCSc2nc3ccccc3s2)cc1OC | inconclusive: 10 µM [inhibitor, partial curve] | – |
| CC(/C=N/Nc1nc2ccccc2[nH]1)=C\c1ccccc1 | inconclusive: 6.31 µM [inhibitor, partial curve, poor fit] | – |
| CN1C[C@H]2CON(C)[C@H]2C[C@H]1c1cccc(-c2ccccc2)c1 | – | inactive: 16.2% |
| COc1ccc(NCc2ccc3c(c2)OCO3)cc1Cl | – | inactive: 1.4% |
| O=C(c1ccccc1)c1ccc(Cn2cc(-c3ccccc3)nn2)cc1 | inconclusive: 28.2 µM [inhibitor, single point] | – |
| Cc1ccc(/C=C/C(=O)Nc2nccs2)o1 | inconclusive: 8.91 µM [inhibitor, partial curve, poor fit] | – |
| COc1ccc(N2CCN(C(=O)[C@@H](NC(=O)c3ccccc3Cl)C(C)C)CC2)cc1 | – | inactive: 0.0241% |
| CCOC(=O)Cc1csc(NC(=O)COc2ccc(C)cc2)n1 | inconclusive: 2 µM [inhibitor, partial curve, poor fit] | – |

| SMILES | Potency | activity change, negative = inhibition |
| --- | --- | --- |
| Cc1cc(C)nc(/N=C(\N)Nc2ccc(SC(F)F)cc2)n1 | inconclusive: 12.6 µM [inhibitor, single point] | – |
| COC(=O)Nc1ccc(S(=O)(=O)N2c3ccccc3CCC2C)cc1 (stereo not given) | inconclusive: 1.41 µM [inhibitor, full curve, poor fit] | – |
| CCC(CO)Oc1cc(NCc2ccc(Cl)cc2Cl)c2ncn(C(C)C)c2c1 (stereo not given) | active: 8.91 µM | – |
| Cc1cccc(C2=NN(c3ccccc3)[C@@H](C(=O)N3CCOC3=O)[C@@H]2C)c1 | – | inactive: 14.6% |
| Cc1cccc(C)c1Nc1nnc(SCC(=O)Nc2ncc(C(F)(F)F)cc2Cl)s1 | inconclusive: 8.91 µM [inhibitor, partial curve, poor fit] | – |
| CC1CCN(C(=O)CSc2nnc3ccc(-c4cccnc4)nn23)CC1 | – | inactive: 3.29% |
| C/C(=N\NC(=O)c1ccc(N/N=C(\C)c2ccc(O)cc2)cc1)c1ccc(O)cc1 | inconclusive: 11.2 µM [inhibitor, partial curve, poor fit] | – |
| CC(C)CN(CC(C)C)C(=O)CCCC(=O)N(CC(C)C)CC(C)C | – | inactive: 1.67% |
| CC(=O)Oc1ccccc1/C=C/c1ccc2ccccc2[n+]1C | inconclusive: 10 µM [inhibitor, partial curve, poor fit] | – |
| COC(=O)c1cc(-c2ccc(OC)cc2F)nc2nc(SC)[nH]c(=O)c12 | – | inactive: 0.296% |
| FC(F)(F)Oc1ccc(NC(=S)Nc2ccc(OC(F)(F)F)cc2)cc1 | inconclusive: 12.6 µM [inhibitor, single point] | – |
| O=C(Nc1nc(-c2ccccn2)cs1)c1cc2ccccc2o1 | – | inactive: -12.8% |
| Cc1cccc(Cc2cnc(N3C(=N)SC(c4ccccc4)C3=O)s2)c1 (stereo not given) | – | inactive: -10.4% |
| CCN(CC)S(=O)(=O)c1ccc(N/N=C(\C)c2ccc(OC)cc2O)nc1 | active: 5.62 µM | – |
| CN(C)CCNC(=O)C(=O)Nc1ccc2c(c1)N(S(=O)(=O)c1cccs1)CCC2 | active: 4.47 µM | – |
| Fc1cccc(NCCc2c[nH]c3ccccc23)n1 | inconclusive: 0.501 µM [inhibitor, full curve, poor fit] | – |
| CNC(=O)c1c(NC(=O)C2=COCCO2)sc2c1CCC(C)C2 (stereo not given) | inconclusive: 1 µM [inhibitor, single point] | – |
| Cc1ccc(C)c(Cn2nnc(C(=O)Nc3ccc4c(c3)OCCO4)c2N)c1 | inconclusive: 10 µM [inhibitor, partial curve, poor fit] | – |
| COc1ccc(C(=O)NC2CCCc3c2cnn3-c2ccccc2F)cc1OC (stereo not given) | – | inactive: -18.3% |
| COc1cccc(N/C=C/C(=O)c2ccc(OC)c(OC)c2)c1 | inconclusive: 11.2 µM [inhibitor, single point] | – |
| Cc1cccc(NC(=O)c2onc3c2CCCC3)c1C | – | inactive: -6.94% |
| CC(C)(C)c1cc(C(=O)N/N=C/c2cc3c(cc2Br)OCO3)n[nH]1 | inconclusive: 2.24 µM [inhibitor, full curve, poor fit] | – |

Ordered by molecular weight (descending): some entries from above.

| SMILES | Potency | activity change, negative = inhibition |
| --- | --- | --- |
| COc1ccc(-c2ccc3c(c2)S(=O)(=O)c2cccc(C(=O)N4CCN(C5CCCCC5)CC4)c2C3=O)cc1OC | active: 3.16 µM | – |
| COCCn1c(C)cc(C(=O)CSc2nc3ccccc3c(=O)n2Cc2ccco2)c1C | – | inactive: -4.09% |
| COc1cc([N+](=O)[O-])cc(/C=N/NC(=O)c2cc(-c3ccccc3)nc3ccccc23)c1O | inconclusive: 12.6 µM [inhibitor, single point] | – |
| CN(C)CCNC(=O)C(=O)Nc1ccc2c(c1)N(S(=O)(=O)c1cccs1)CCC2 | active: 4.47 µM | – |
| CCC(CO)Oc1cc(NCc2ccc(Cl)cc2Cl)c2ncn(C(C)C)c2c1 (stereo not given) | active: 8.91 µM | – |
| Cc1ccc(C)c(Cn2nnc(C(=O)Nc3ccc4c(c3)OCCO4)c2N)c1 | inconclusive: 10 µM [inhibitor, partial curve, poor fit] | – |
| COc1cc(NC(=O)CSC(=S)N2CCCC2)c(OC)cc1Cl | inconclusive: 0.251 µM [inhibitor, full curve, poor fit] | – |
| CC(C)CN(CC(C)C)C(=O)CCCC(=O)N(CC(C)C)CC(C)C | – | inactive: 1.67% |
| CN1C[C@H]2CON(C)[C@H]2C[C@H]1c1cccc(-c2ccccc2)c1 | – | inactive: 16.2% |
| Fc1cccc(NCCc2c[nH]c3ccccc23)n1 | inconclusive: 0.501 µM [inhibitor, full curve, poor fit] | – |
